Assay results published in the supplement of paper PMC12819154, “High-throughput peptide-centric local stability assay extends protein–ligand identification to membrane proteins, tissues and bacteria” (Nature Structural & Molecular Biology, 2025).
The list shows a part of the results. Small differences around the control level are noise.

Protein sequences, listed by entry. Tags and fused reporters are not part of them. Lines headed by an entry give the natural chain unless they say otherwise; changes in a name come on top.
UniProt Q6NSR8: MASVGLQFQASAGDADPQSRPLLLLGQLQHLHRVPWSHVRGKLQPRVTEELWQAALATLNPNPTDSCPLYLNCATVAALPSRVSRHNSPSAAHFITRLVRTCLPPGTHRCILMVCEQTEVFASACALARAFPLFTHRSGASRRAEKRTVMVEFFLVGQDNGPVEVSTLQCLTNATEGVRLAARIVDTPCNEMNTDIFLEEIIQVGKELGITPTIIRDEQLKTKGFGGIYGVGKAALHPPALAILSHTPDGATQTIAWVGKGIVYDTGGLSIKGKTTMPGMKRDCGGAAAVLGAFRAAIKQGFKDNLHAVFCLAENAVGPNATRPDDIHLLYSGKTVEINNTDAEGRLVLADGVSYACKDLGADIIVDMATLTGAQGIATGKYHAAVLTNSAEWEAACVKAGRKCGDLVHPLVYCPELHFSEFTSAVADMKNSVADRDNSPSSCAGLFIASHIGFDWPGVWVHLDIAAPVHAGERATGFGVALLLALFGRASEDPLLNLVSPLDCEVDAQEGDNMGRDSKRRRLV
UniProt Q64324: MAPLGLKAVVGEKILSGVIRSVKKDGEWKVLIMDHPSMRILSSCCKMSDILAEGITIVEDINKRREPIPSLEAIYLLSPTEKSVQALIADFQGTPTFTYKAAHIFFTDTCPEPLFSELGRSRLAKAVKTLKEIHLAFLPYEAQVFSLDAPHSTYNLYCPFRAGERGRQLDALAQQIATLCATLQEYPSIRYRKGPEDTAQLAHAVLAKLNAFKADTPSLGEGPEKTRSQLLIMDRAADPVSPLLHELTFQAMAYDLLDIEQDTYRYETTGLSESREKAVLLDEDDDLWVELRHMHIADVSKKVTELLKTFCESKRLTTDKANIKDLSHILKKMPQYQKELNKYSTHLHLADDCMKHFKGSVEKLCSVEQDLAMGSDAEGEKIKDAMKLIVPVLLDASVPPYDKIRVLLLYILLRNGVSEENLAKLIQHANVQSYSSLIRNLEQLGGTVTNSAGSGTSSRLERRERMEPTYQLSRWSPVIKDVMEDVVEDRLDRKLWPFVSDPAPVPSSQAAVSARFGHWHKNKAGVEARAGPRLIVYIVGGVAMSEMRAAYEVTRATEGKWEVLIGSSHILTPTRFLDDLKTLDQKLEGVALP
UniProt Q61033: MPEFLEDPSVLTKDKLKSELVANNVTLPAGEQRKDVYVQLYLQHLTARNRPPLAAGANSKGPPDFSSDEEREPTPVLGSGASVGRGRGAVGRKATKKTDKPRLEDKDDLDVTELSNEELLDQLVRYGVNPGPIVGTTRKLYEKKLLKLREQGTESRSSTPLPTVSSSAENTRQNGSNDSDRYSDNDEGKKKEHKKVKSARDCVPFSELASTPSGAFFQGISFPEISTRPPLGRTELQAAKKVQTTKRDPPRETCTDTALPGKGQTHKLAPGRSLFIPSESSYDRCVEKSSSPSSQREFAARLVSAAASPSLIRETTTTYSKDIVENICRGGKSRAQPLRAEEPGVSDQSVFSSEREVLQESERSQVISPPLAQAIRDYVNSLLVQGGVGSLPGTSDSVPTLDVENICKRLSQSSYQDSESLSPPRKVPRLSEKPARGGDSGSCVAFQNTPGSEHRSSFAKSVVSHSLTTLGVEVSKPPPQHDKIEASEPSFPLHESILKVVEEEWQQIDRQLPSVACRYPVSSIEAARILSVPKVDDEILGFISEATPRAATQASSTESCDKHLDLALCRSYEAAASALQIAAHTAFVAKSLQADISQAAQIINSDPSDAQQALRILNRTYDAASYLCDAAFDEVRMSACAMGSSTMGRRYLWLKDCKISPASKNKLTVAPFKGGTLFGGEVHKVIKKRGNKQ
UniProt Q61249: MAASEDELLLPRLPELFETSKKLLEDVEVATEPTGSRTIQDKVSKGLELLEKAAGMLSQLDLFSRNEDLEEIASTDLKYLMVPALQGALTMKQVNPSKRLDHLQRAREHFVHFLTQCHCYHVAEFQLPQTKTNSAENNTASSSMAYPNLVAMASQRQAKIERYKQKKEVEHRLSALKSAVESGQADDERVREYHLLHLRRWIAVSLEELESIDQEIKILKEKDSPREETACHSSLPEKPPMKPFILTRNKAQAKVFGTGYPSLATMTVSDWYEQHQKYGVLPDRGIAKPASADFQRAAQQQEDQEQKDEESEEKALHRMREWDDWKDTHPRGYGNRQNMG
UniProt Q64339: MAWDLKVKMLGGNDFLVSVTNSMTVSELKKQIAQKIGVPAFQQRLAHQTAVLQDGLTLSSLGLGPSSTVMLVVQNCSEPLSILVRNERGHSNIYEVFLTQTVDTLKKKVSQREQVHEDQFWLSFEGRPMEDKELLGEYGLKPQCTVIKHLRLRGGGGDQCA
UniProt Q5SUC9: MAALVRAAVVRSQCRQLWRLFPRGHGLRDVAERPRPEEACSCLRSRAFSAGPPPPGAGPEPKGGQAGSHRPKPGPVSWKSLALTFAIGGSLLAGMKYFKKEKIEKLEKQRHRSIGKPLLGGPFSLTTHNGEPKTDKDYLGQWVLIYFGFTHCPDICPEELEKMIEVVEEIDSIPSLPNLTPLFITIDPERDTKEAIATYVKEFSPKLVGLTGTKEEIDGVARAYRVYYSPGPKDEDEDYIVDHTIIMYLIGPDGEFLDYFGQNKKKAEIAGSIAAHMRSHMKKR
UniProt Q5SW19: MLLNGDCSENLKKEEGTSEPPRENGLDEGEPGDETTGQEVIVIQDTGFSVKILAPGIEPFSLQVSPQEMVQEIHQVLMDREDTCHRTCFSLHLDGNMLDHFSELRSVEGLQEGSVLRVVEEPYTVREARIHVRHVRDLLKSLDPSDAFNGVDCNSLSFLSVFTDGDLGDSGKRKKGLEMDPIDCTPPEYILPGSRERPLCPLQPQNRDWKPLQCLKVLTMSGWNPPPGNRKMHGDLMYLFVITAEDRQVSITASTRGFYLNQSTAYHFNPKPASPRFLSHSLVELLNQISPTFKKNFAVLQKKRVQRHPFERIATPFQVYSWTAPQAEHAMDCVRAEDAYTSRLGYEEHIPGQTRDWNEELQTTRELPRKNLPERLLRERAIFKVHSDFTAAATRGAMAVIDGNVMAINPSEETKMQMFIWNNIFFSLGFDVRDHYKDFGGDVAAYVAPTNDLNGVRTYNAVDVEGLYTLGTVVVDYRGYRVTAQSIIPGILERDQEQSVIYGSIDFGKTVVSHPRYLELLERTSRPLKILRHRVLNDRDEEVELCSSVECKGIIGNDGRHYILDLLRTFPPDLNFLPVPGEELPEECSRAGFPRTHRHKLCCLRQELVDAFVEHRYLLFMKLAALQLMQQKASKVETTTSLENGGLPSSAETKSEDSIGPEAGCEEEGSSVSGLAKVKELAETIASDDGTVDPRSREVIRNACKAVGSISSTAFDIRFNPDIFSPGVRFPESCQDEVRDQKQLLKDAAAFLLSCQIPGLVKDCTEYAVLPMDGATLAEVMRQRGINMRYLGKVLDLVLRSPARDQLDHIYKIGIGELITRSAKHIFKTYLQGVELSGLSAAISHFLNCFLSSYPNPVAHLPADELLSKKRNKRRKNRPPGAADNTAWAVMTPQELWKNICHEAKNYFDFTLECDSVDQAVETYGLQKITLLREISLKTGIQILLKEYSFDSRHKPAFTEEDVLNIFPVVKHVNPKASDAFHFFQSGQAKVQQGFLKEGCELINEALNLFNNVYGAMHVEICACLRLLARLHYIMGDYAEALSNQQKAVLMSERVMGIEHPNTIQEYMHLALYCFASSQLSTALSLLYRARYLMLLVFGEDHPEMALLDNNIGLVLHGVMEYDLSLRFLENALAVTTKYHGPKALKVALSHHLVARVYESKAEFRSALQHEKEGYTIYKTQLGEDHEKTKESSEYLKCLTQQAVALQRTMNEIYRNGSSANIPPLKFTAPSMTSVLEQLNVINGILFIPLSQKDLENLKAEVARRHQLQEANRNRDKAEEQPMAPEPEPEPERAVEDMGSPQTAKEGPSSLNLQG
UniProt Q61081: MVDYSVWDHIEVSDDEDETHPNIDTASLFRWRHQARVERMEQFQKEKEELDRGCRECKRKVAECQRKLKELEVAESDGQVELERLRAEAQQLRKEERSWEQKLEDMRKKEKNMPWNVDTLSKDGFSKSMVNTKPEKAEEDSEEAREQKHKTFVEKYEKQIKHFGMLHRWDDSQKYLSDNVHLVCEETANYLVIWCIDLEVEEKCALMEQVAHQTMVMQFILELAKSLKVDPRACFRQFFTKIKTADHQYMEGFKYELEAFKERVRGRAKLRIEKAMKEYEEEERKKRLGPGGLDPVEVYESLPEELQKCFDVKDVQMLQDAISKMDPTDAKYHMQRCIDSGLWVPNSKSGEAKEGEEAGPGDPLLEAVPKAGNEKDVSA
UniProt Q60710: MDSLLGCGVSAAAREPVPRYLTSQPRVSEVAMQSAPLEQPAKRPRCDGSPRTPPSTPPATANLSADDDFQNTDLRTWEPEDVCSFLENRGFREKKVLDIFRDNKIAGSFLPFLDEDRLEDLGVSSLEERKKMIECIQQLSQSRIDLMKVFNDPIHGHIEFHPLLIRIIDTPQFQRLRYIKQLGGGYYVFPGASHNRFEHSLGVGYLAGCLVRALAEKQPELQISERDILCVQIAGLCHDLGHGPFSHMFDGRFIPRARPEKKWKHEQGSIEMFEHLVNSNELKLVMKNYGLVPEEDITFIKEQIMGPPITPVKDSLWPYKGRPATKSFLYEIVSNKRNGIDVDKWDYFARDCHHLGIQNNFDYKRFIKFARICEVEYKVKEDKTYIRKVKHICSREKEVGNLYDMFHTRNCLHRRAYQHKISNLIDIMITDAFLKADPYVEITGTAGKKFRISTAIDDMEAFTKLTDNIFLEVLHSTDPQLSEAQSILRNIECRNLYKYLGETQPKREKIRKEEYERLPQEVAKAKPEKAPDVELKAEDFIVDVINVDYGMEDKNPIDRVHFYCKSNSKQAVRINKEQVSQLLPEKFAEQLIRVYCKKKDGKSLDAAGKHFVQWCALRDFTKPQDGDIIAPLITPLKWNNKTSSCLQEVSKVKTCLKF
UniProt Q5U3K5: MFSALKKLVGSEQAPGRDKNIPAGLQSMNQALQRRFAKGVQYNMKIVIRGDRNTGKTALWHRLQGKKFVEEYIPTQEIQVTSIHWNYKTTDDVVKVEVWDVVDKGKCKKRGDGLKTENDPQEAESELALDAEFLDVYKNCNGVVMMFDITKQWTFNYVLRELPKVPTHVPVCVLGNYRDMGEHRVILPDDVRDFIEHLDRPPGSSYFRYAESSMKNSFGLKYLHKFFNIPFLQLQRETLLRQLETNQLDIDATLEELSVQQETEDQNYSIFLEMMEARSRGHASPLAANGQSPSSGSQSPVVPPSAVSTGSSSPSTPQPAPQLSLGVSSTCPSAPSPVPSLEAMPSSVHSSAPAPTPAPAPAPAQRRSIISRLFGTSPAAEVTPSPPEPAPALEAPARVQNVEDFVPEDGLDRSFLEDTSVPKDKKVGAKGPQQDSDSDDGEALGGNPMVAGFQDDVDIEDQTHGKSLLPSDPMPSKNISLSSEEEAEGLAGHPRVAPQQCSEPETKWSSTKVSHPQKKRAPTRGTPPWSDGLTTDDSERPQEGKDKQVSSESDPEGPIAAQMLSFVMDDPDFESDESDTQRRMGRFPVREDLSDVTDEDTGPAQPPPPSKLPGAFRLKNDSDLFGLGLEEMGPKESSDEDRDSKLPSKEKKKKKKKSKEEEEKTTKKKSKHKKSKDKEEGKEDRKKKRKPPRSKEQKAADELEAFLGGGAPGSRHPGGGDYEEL
UniProt Q64705: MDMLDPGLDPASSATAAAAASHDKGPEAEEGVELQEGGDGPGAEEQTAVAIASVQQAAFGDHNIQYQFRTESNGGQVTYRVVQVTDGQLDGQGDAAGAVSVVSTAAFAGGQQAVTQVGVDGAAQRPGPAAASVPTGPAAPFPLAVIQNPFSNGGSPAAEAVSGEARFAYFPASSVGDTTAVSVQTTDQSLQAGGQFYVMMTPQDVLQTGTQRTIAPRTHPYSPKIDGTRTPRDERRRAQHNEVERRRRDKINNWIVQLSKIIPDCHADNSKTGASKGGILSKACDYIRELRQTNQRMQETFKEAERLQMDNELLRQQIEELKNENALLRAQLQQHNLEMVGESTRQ
UniProt Q61029: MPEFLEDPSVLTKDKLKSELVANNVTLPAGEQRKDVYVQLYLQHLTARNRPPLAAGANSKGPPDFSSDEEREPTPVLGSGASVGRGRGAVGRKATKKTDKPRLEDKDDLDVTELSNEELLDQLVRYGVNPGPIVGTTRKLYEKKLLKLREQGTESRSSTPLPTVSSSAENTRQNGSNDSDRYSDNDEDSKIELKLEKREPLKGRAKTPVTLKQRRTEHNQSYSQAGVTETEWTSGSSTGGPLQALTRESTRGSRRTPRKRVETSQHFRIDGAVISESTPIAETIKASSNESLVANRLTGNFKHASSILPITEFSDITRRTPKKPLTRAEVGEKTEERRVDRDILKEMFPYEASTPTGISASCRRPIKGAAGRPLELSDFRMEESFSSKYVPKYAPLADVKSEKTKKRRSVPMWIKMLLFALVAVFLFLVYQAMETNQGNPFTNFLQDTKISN

The targets below were run with CN[C@@H]1C[C@H]2O[C@@](C)([C@@H]1OC)n1c3ccccc3c3c4c(c5c6ccccc6n2c5c31)C(=O)NC4 [staurosporine] (assay: log2 fold change of pooled soluble protein (PISA), ligand vs vehicle (log2 ratio); higher = more thermally stabilized). Details: ligand concentration: 20 uM; assay format: PISA pool 52.9/55.5/58.6 C.

Question: UniProt Q64442 was tested. Which “log2 fold change of pooled soluble protein” value (“log2 fold change” below) did it give?
Answer: Its value is 0.0804.

Question: For UniProt Q5SX19, which “log2 fold change” value is on record?
Answer: The value was 0.283.

Question: With UniProt Q5SV85 as the target, how does the “log2 fold change” value read?
Answer: The value was -0.0419.

Question: How did the “log2 fold change” value turn out when UniProt Q64010 was run?
Answer: The value was -0.00697.

Question: For UniProt Q61702, which “log2 fold change” value is on record?
Answer: The value was -0.0536.

Question: How did the “log2 fold change” value turn out when UniProt Q6NSR8 was run?
Answer: The value was -0.0935.

Question: Which “log2 fold change” value does the source give for UniProt Q5XJY5 here?
Answer: Its value is -0.159.

Question: For UniProt Q61462, which “log2 fold change” value is on record?
Answer: The value was -0.116.

Question: For UniProt Q64324, which “log2 fold change” value is on record?
Answer: The value was -0.00718.

Question: How did the “log2 fold change” value turn out when UniProt Q64520 was run?
Answer: Its value is 0.118.

Question: Which “log2 fold change” value does the source give for UniProt Q61838 here?
Answer: The value was -0.0358.

Question: Which “log2 fold change” value does the source give for UniProt Q60596 here?
Answer: Its value is 0.265.

Question: For UniProt Q62376, which “log2 fold change” value is on record?
Answer: The value was -0.0118.

Question: With UniProt Q61586 as the target, how does the “log2 fold change” value read?
Answer: Its value is -0.0204.

Question: Which “log2 fold change” value does the source give for UniProt Q61033 here?
Answer: The value was 0.0127.

Question: How did the “log2 fold change” value turn out when UniProt Q61249 was run?
Answer: The value was 0.0466.

Question: How did the “log2 fold change” value turn out when UniProt Q5XG73 was run?
Answer: The value was 0.012.

Question: With UniProt Q64339 as the target, how does the “log2 fold change” value read?
Answer: The value was 0.342.

Question: For UniProt Q5SUC9, which “log2 fold change” value is on record?
Answer: Its value is -0.01.

Question: UniProt Q61655 was tested. Which “log2 fold change” value did it give?
Answer: Its value is 0.0503.

Question: How did the “log2 fold change” value turn out when UniProt Q64521 was run?
Answer: The value was 0.0118.

Question: For UniProt Q61694, which “log2 fold change” value is on record?
Answer: Its value is -0.0617.

Question: UniProt Q61147 was tested. Which “log2 fold change” value did it give?
Answer: Its value is -0.0473.

Question: With UniProt Q64516 as the target, how does the “log2 fold change” value read?
Answer: Its value is 0.0315.

Question: With UniProt Q6AW69 as the target, how does the “log2 fold change” value read?
Answer: Its value is 0.059.

Question: UniProt Q5SW19 was tested. Which “log2 fold change” value did it give?
Answer: The value was -0.00849.

Question: How did the “log2 fold change” value turn out when UniProt Q64FW2 was run?
Answer: The value was 0.0266.

Question: Which “log2 fold change” value does the source give for UniProt Q61107 here?
Answer: The value was -0.153.

Question: How did the “log2 fold change” value turn out when UniProt Q61081 was run?
Answer: The value was -0.0408.

Question: How did the “log2 fold change” value turn out when UniProt Q60710 was run?
Answer: The value was -0.0331.

Question: With UniProt Q5U3K5 as the target, how does the “log2 fold change” value read?
Answer: Its value is 0.112.

Question: Which “log2 fold change” value does the source give for UniProt Q5SXA9 here?
Answer: Its value is -0.0795.

Question: UniProt Q68FG3 was tested. Which “log2 fold change” value did it give?
Answer: Its value is -0.0412.

Question: How did the “log2 fold change” value turn out when UniProt Q64705 was run?
Answer: Its value is 0.168.

Question: With UniProt Q60967 as the target, how does the “log2 fold change” value read?
Answer: Its value is -0.15.

Question: For UniProt Q61559, which “log2 fold change” value is on record?
Answer: The value was -0.39.

Question: UniProt Q61029 was tested. Which “log2 fold change” value did it give?
Answer: Its value is -0.0841.
